No constants are given. Whether binding was seen depends on the method and setting. Binding calls can cover weak binding; strength is not graded here. Tags and fused reporters may be left off the sequences shown. For some assays here: Binding seen in cells or lysates may run through a third protein.

Data on two molecules can be found in paper PMC3998894.

In test [1] the target is T1, POD-6 (yeast two-hybrid fusion) (N. crassa) (UniProt V5IQR8).
T1 sequence: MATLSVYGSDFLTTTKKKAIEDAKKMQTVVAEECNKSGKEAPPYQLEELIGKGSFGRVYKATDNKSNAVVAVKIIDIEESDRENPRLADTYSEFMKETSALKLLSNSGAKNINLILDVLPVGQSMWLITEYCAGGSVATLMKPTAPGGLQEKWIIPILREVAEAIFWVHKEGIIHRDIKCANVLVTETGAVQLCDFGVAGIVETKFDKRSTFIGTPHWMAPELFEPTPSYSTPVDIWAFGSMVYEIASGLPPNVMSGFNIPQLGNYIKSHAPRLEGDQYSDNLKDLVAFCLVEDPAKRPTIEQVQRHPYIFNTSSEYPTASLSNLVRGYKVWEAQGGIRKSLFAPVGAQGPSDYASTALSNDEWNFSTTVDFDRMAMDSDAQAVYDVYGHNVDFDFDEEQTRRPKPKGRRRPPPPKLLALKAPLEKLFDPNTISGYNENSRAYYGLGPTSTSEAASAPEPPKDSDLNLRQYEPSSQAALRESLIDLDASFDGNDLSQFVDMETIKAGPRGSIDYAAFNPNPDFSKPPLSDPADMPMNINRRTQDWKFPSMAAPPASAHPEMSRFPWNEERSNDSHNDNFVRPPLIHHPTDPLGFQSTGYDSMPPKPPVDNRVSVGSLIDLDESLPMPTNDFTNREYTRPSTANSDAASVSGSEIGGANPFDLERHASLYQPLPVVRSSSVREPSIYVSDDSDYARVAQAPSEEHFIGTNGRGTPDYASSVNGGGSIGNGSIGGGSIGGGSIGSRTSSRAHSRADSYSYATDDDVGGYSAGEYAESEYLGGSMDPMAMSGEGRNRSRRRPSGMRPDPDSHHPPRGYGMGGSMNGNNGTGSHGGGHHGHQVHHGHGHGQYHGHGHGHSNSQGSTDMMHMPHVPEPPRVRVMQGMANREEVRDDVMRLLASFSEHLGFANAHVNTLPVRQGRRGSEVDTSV
Description: two-hybrid; Matchmaker Two-Hybrid system 3; Gal4 activation domain (pGADT7) and DNA-binding domain (pGBKT7) fusions co-expressed in S. cerevisiae AH109; growth on SD lacking adenine, histidine, leucine and tryptophan or on SD with 10 mM 3-amino-1,2,4-triazole lacking leucine, tryptophan and histidine.

In a further test the target is MST-1-GFP (N. crassa). Briefly: co-IP; cell extracts from fused heterokaryotic N. crassa strains co-expressing both tagged proteins; beads washed twice with IP buffer (50 mM Tris/HCl pH 7.5, 100 mM KCl, 10 mM MgCl2, 0.1% NP-40); Western blot. A general note: In western blotting, separated proteins are transferred to a membrane and probed.

With “MST-1 (yeast two-hybrid fusion) (N. crassa) (enzyme)”, the binding entry in test [1] was “binds”.

B1: HA-POD-6 (enzyme, UniProt V5IQR8 1-928)
chain: MATLSVYGSDFLTTTKKKAIEDAKKMQTVVAEECNKSGKEAPPYQLEELIGKGSFGRVYKATDNKSNAVVAVKIIDIEESDRENPRLADTYSEFMKETSALKLLSNSGAKNINLILDVLPVGQSMWLITEYCAGGSVATLMKPTAPGGLQEKWIIPILREVAEAIFWVHKEGIIHRDIKCANVLVTETGAVQLCDFGVAGIVETKFDKRSTFIGTPHWMAPELFEPTPSYSTPVDIWAFGSMVYEIASGLPPNVMSGFNIPQLGNYIKSHAPRLEGDQYSDNLKDLVAFCLVEDPAKRPTIEQVQRHPYIFNTSSEYPTASLSNLVRGYKVWEAQGGIRKSLFAPVGAQGPSDYASTALSNDEWNFSTTVDFDRMAMDSDAQAVYDVYGHNVDFDFDEEQTRRPKPKGRRRPPPPKLLALKAPLEKLFDPNTISGYNENSRAYYGLGPTSTSEAASAPEPPKDSDLNLRQYEPSSQAALRESLIDLDASFDGNDLSQFVDMETIKAGPRGSIDYAAFNPNPDFSKPPLSDPADMPMNINRRTQDWKFPSMAAPPASAHPEMSRFPWNEERSNDSHNDNFVRPPLIHHPTDPLGFQSTGYDSMPPKPPVDNRVSVGSLIDLDESLPMPTNDFTNREYTRPSTANSDAASVSGSEIGGANPFDLERHASLYQPLPVVRSSSVREPSIYVSDDSDYARVAQAPSEEHFIGTNGRGTPDYASSVNGGGSIGNGSIGGGSIGGGSIGSRTSSRAHSRADSYSYATDDDVGGYSAGEYAESEYLGGSMDPMAMSGEGRNRSRRRPSGMRPDPDSHHPPRGYGMGGSMNGNNGTGSHGGGHHGHQVHHGHGHGQYHGHGHGHSNSQGSTDMMHMPHVPEPPRVRVMQGMANREEVRDDVMRLLASFSEHLGFANAHVNTLPVRQGRRGSEVDTSV
For the molecule B1, the binding entry in the test with MST-1-GFP (N. crassa) was “binds”.
